Measurements from article PMC11501031.
No constants are given. Whether binding was seen depends on the method and setting. Binding calls can cover weak binding; strength is not graded here. Tags and fused reporters may be left off the sequences shown. One block for each molecule: values may come before it.

Legend:
[1] = target: T1, Nanos, full length, fused to a DNA-binding domain (two-hybrid bait) (Drosophila) (UniProt P25724); assay: two-hybrid; yeast PJ69-4A; DBD fusion as bait, AD fusion as prey; lacZ reporter, beta-galactosidase measured with Beta-Glo in arbitrary light units; three transformants each; control is the empty AD vector
T1 sequence: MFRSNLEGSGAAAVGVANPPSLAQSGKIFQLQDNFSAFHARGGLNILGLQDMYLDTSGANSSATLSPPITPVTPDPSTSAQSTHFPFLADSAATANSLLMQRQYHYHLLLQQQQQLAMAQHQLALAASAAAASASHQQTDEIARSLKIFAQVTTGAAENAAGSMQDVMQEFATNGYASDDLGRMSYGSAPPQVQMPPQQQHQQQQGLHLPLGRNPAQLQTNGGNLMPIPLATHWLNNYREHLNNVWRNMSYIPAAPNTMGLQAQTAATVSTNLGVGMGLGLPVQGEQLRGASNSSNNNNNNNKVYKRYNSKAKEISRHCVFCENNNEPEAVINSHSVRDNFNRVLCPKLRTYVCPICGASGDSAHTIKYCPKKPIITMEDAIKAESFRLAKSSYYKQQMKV

[2] = target: Bruno as expressed in the yeast four-hybrid experiments (bound to RNA bearing BREs) (Drosophila); assay: yeast four-hybrid; yeast YBZ1 (LexA-MS2 coat, lexA-op-lacZ); Bru bound to a hybrid RNA bearing wild-type BREs; recruitment of AD fusions of Nos read by beta-galactosidase (Beta-Glo); triple transformants
[3] = target: Bruno fused to a DNA-binding domain (two-hybrid bait) (Drosophila); assay: two-hybrid; yeast PJ69-4A; DBD fusion as bait, AD fusion as prey; lacZ reporter, beta-galactosidase measured with Beta-Glo in arbitrary light units; three transformants each; control is the empty AD vector

binding [1]: binds
Molecule: NOT4 fused to a transcriptional activation domain (two-hybrid prey) (Drosophila)

binding [1]: binds
Molecule: Bruno fragment fused to a transcriptional activation domain (two-hybrid prey) (Drosophila) (domain or fragment)

binding [2]: binds
binding [3]: binds
B1: Nanos fused to a transcriptional activation domain (protein, UniProt P25724 1-401)
chain: T1 sequence
